Data published in article PMC10589346.
Results are given in words; binding and its absence hold for the method and conditions named. For part of these data: Binding seen in cells or lysates may run through a third protein. Some binding calls cover weakened binding; strength is not graded here. For part of these data: Sequences can lack the tags named with a protein.

Sequences of proteins named here, by UniProt entry; tags and fusion partners are left off. A change or cut given only in a name is not applied to a line headed by its entry.
UniProt Q8N697: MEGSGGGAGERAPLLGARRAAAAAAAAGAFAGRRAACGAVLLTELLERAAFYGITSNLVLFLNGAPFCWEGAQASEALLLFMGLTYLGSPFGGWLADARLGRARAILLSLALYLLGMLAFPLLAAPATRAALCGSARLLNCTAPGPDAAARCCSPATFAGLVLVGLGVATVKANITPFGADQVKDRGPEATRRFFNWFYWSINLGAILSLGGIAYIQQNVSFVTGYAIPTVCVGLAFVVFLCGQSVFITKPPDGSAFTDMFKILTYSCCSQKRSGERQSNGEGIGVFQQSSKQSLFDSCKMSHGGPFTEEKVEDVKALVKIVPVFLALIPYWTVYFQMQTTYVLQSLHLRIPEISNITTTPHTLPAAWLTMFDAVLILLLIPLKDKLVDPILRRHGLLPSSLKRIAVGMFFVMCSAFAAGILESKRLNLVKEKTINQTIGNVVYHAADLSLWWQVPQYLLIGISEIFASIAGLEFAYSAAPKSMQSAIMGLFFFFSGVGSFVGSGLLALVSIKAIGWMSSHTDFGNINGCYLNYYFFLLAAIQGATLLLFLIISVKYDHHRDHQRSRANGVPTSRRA

How the values were obtained:
[1] = molecular target: human full-length SLC15A4 with C-terminus tandem twin Strep-tag (human) (UniProt Q8N697); assay: co-purification of co-expressed proteins; C-terminal Flag-tagged TASL(1–20&207–301) and C-terminal strep-tagged SLC15A4 co-expressed in HEK293F; complex reconstituted in LMNG micelles
[2] = molecular target: SLC15A4-FLAG wild-type (human) (UniProt Q8N697); assay: co-IP; SLC15A4-FLAG (wild-type or mutants) co-transfected with TASL(1–20)Strep in HEK293T; lysis buffer 25 mM HEPES, 300 mM NaCl, 5 mM EDTA, 1% NP-40, pH 7.5; FLAG beads overnight at 4 °C; immunoblotting
[3] = molecular target: SLC15A4-FLAG E465K (human) (UniProt Q8N697); assay: as above

B1: C-terminal Flag-tagged TASL(1–20&207–301) (domain or fragment, UniProt Q9HAI6 1-20; Q9HAI6 207-301)
chain: MLSEGYLSGLEYWNDIHWSCNAVLNEYLEQKVVELYKQYIMDTVFHDSSPTQILASELIMTSVDQISLQVSREKNLETSKARDIVFSRLLQLMSTEITEISTPSLHISQYSNVNP
[1]
  binding: binds

B2: TASL(1–20)Strep (domain or fragment, UniProt Q9HAI6 1-20)
chain: MLSEGYLSGLEYWNDIHWSC
[2]
  binding: binds
[3]
  binding: no binding
